Source: PubChem BioAssay AID1347076 (National Center for Advancing Translational Sciences (NCATS), 2019)
Hit rate of the full screen: of about 400,000 compounds, about 13,000 (3.2%) were called active. This list was built around the results that the source calls inconclusive (neither active nor inactive); the mix of calls is not that of the screen. Calls come from the whole dose curve; as a rule, active = well fitted cell-killing curve with a large enough effect; inconclusive = small, poorly fitted or top-dose-only effect, or effect the other way; inactive = flat fitted curve, though single readings scatter. Where the call is inconclusive, the potency comes from a doubtful curve fit.

Assay: qHTS assay for MDR1-selective chemotherapeutics: Primary screen using the drug-selected MDR subline cells KB-V1; note: nearly all actives have a fitted effect of over 60% in size
Settings: KB-V1 MDR cells viability, CellTiter-Glo, 72 h; activity change, negative = cytotoxicity: at 46.1 µM (top of the series)
Method in brief: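 KB-V1, DMEM (no phenol red) + 10% FBS; cpd pin-transferred, titration series; 72 h, 37 degrees C; CellTiter-Glo, luminescence. Data normalized, curve-fit.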
% is set by controls: 0 for no effect and ±100 for the full control effect; potency is the fitted concentration of half-maximal effect.

Row | SMILES | activity change, negative = cytotoxicity | Potency
1 | CCCCN(C)S(=O)(=O)c1ccc(C(=O)Nc2sc3c(c2C(N)=O)CC(C)(C)NC3(C)C)cc1 | inactive: 0% | 
2 | CC(=O)Nc1ccc(OCc2ccc(S(=O)(=O)Cc3ccccc3)cc2)cc1 |  | inconclusive: 32.6 µM [rising, single point]
3 | CCSc1nnc(-c2sc3nnc(-c4ccccc4)c(-c4ccccc4)c3c2N)o1 | inactive: -4.05% | 
4 | O=C(OCc1nc2ccccc2[nH]1)C1CCCCC1 | inactive: 27.9% | 
5 | Cc1onc(-c2c(Cl)cccc2Cl)c1C(=O)N1CCN(Cc2ccccc2)CC1 |  | inconclusive: 13 µM [cytotoxic, partial curve]
6 | Oc1c(CNc2ccccc2)cc(COCc2ccccc2)c2cccnc12 | inactive: -1.36% | 
7 | CC(C)CCNC(=O)C(C)N(Cc1ccc(F)cc1)C(=O)c1ccc(CN2CCOCC2)o1 (stereo not given) |  | inconclusive: 20.6 µM [cytotoxic, partial curve]
8 | Cc1ccc(NC(=O)c2cc3ccccc3cc2O)cc1 | inactive: -16.1% | 
9 | Cn1c(=O)oc2cc(S(=O)(=O)NCc3ccccn3)ccc21 |  | inconclusive: 4.11 µM [rising, full curve, poor fit]
10 | Cc1cc(S(=O)(=O)N2CCC(N3CCCCC3)CC2)ccc1-n1cnnn1 | inactive: -3.65% | 
11 | Cc1cc(C)n2nc(N)c(N=Nc3cccc(Cl)c3)c2n1 |  | inconclusive: 13 µM [cytotoxic, partial curve, poor fit]
12 | O=C(c1cc(S(=O)(=O)N2CCN(c3ccccc3)CC2)ccc1Cl)N1CCCC(C(F)(F)F)C1 (stereo not given) |  | inconclusive: 7.31 µM [cytotoxic, partial curve, poor fit]
13 | COc1cc(/C=C/c2ccc3cccc(O)c3n2)cc(Cl)c1OC |  | inconclusive: 1.64 µM [cytotoxic, full curve]
14 | COc1ccc(CC(=O)OCC(=O)N2N=C(c3ccccc3)CC2c2ccc(OC)cc2)cc1 (stereo not given) |  | active: 20.6 µM
15 | O=C(CSc1nc2c(oc3ccccc32)c(=O)n1Cc1ccco1)Nc1ccccc1Cl | inactive: 1.53% | 
16 | CN(C)c1ccc(/C=C/c2ccc3cc(N(C)C)ccc3n2)cc1 |  | inconclusive: 10.3 µM [cytotoxic, partial curve]
17 | CCOC(=O)C(C)Sc1nnc(-c2ccccc2O)n1-c1ccc(C)cc1 (stereo not given) | inactive: -27.2% | 
18 | CCN(Cc1ccccc1)S(=O)(=O)c1ccc(C(=O)N(CCCN(C)C)c2nc3cc(C)cc(C)c3s2)cc1 |  | inconclusive: 25.9 µM [cytotoxic, single point]
19 | CC(C)n1c(Oc2ccc(F)cc2)nc2c1c(=O)n(C)c(=O)n2C |  | inconclusive: 11.6 µM [cytotoxic, single point]
20 | COc1ccc(-c2cc3ccccc3cn2)cc1 | inactive: -4.82% | 

Numbers 19 to 20, reprinted for reference:
Row | SMILES | activity change, negative = cytotoxicity | Potency
19 | CC(C)n1c(Oc2ccc(F)cc2)nc2c1c(=O)n(C)c(=O)n2C |  | inconclusive: 11.6 µM [cytotoxic, single point]
20 | COc1ccc(-c2cc3ccccc3cn2)cc1 | inactive: -4.82% | 
